# Laboratory results: PubChem BioAssay AID1259308 (NCATS, 2017)
# Test: 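Knock-downs that increase output of a recombinant reporter protein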 (primary screen)
# System: human HEK293 embryonic kidney cells stably expressing firefly luciferase (HEK-CMV-Luc2-Hygro)
# Reagents: single siRNA against human genes, 0.8 pmol siRNA per well
# Timing: 72 h
# Measured: 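Luciferase light (ONE-Glo) measured on one replicate plate set and viability (CellTiter-Glo) on the other, scaled to a negative control siRNA, with robust z-scores and luciferase per cell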
# Direction: total luciferase, z-score and total luciferase, % of control: higher = more reporter protein produced; luciferase per cell, z-score: higher = more reporter output per viable cell; viable cells, % of control: higher = more viable cells
# Call rule: 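Active when the median/MAD z-score for overall luciferase is greater than 3; a gene was taken forward for validation with new siRNAs if at least two of its three siRNAs passed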
# Meaning of the calls: active = raised luciferase; inactive = no rise
# Shown is one part, drawn at random, of about 59,000 reagents. About 1,510 of all reagents (2.6%) were called active. 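Calls use total luciferase alone and ignore viability, so some active siRNAs may act by altering cell number.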 Unmarked entries are inactive. Reagents against one gene are numbered here. No sequences are given here.
target gene,reagent,"total luciferase, z-score","total luciferase, % of control","luciferase per cell, z-score","viable cells, % of control"
CT45A3 (cancer/testis antigen family 45 member A3),1,-0.886,64.3,-0.00361,71.9
CT45A3 (cancer/testis antigen family 45 member A3),2,-0.521,71.5,-0.53,91.9
CT45A3 (cancer/testis antigen family 45 member A3),3,0.161,85.1,-0.521,109
ZNF543 (zinc finger protein 543),1,1.81,118,3.55,51.8
ZNF543 (zinc finger protein 543),2,-1.27,56.6,-1.76,101
ZNF543 (zinc finger protein 543),3,-0.279,76.3,-0.896,108
"WASHC2EP (WASHC2E, pseudogene)",1,-1.85,45.1,-1.7,78.7
"WASHC2EP (WASHC2E, pseudogene)",2,2.19,126,1.54,93.6
"WASHC2EP (WASHC2E, pseudogene)",3,-0.131,79.3,-0.0546,89.9
ADD1 (adducin 1),1,-0.292,76.1,-0.66,101
ADD1 (adducin 1),2,-0.0306,81.3,-0.311,98.6
ADD1 (adducin 1),3,-2.29,36.4,-1.41,58.8
"RAB40B (RAB40B, member RAS oncogene family)",1,0.217,86.2,0.206,91.2
"RAB40B (RAB40B, member RAS oncogene family)",2,0.413,90.1,0.466,89.1
"RAB40B (RAB40B, member RAS oncogene family)",3,1.66,115,0.78,105
FKBP15 (FKBP prolyl isomerase family member 15),1,1.62,114,1.39,88.3
FKBP15 (FKBP prolyl isomerase family member 15),2,-1.09,60.3,-1.22,92.8
FKBP15 (FKBP prolyl isomerase family member 15),3,0.451,90.9,0.427,90.7
RPTOR (regulatory associated protein of MTOR complex 1),1,-0.999,62,-0.582,80.8
RPTOR (regulatory associated protein of MTOR complex 1),2,-0.0651,80.6,0.364,81.8
RPTOR (regulatory associated protein of MTOR complex 1),3,-0.88,64.4,-0.861,90.3
CYP4V2 (cytochrome P450 family 4 subfamily V member 2),1,-0.634,69.3,-0.591,90.5
CYP4V2 (cytochrome P450 family 4 subfamily V member 2),2,-1.43,53.4,-1.94,99.4
CYP4V2 (cytochrome P450 family 4 subfamily V member 2),3,-0.592,70.1,1.07,59.2
THRAP3 (thyroid hormone receptor associated protein 3),1,0.42,90.2,0.76,82.6
THRAP3 (thyroid hormone receptor associated protein 3),2,0.249,86.8,-0.743,118
THRAP3 (thyroid hormone receptor associated protein 3),3,-0.26,76.7,-0.54,98.8
STXBP1 (syntaxin binding protein 1),1,-1.04,61.3,-1.11,91.7
STXBP1 (syntaxin binding protein 1),2,1.57,113,1.13,93.7
STXBP1 (syntaxin binding protein 1),3,0.364,89.1,0.114,96.6
CDCA8 (cell division cycle associated 8),1,-1.5,52.1,-1.86,95
CDCA8 (cell division cycle associated 8),2,-2.05,41.1,-2.32,84.8
CDCA8 (cell division cycle associated 8),3,-1.16,58.8,-0.33,71.6
CD24 (CD24 molecule),1,-1.22,57.6,-1.45,94.3
CD24 (CD24 molecule),2,-0.464,72.7,0.282,75.4
CD24 (CD24 molecule),3,-2.09,40.3,-0.0077,45.1
RPS10 (ribosomal protein S10),1,-2.38,34.5,-1.37,55.3
RPS10 (ribosomal protein S10),2,-1.97,42.7,-0.63,56.3
RPS10 (ribosomal protein S10),3,-2.7,28.3,-2.79,65.9
INTS3 (integrator complex subunit 3),1,1.25,107,0.364,108
INTS3 (integrator complex subunit 3),2,2.08,123,1.66,89.1
INTS3 (integrator complex subunit 3),3,1.84,119,1.34,93.1
DYNLT3 (dynein light chain Tctex-type 3),1,2.08,123,1.83,85.1
DYNLT3 (dynein light chain Tctex-type 3),2,-0.352,74.9,-0.0415,84.6
DYNLT3 (dynein light chain Tctex-type 3),3,-1.71,47.8,-1.82,86.1
LRATD1 (LRAT domain containing 1),1,0.382,89.5,0.0621,98.4
LRATD1 (LRAT domain containing 1),2,-0.0466,81,0.623,76.8
LRATD1 (LRAT domain containing 1),3,1.19,106,0.696,98.2
DPPA5 (developmental pluripotency associated 5),1,1.48,111,1.33,87.5
DPPA5 (developmental pluripotency associated 5),2,0.445,90.7,0.472,89.6
DPPA5 (developmental pluripotency associated 5),3,0.387,89.6,-0.395,111
"SAA4 (serum amyloid A4, constitutive)",1,0.785,97.5,-0.427,122
"SAA4 (serum amyloid A4, constitutive)",2,0.0649,83.2,-0.382,103
"SAA4 (serum amyloid A4, constitutive)",3,1.89,120,0.653,112
FASTKD1 (FASTK mitochondrial RNA regulator 1),1,0.384,89.5,0.82,80.6
FASTKD1 (FASTK mitochondrial RNA regulator 1),2,-0.0252,81.4,-0.533,105
FASTKD1 (FASTK mitochondrial RNA regulator 1),3,3.64 (active),154,2.85,81.3

7 entries already listed, arranged by “luciferase per cell, z-score”, lowest first:
target gene,reagent,"total luciferase, z-score","total luciferase, % of control","luciferase per cell, z-score","viable cells, % of control"
DYNLT3 (dynein light chain Tctex-type 3),3,-1.71,47.8,-1.82,86.1
DYNLT3 (dynein light chain Tctex-type 3),2,-0.352,74.9,-0.0415,84.6
LRATD1 (LRAT domain containing 1),1,0.382,89.5,0.0621,98.4
DPPA5 (developmental pluripotency associated 5),2,0.445,90.7,0.472,89.6
LRATD1 (LRAT domain containing 1),2,-0.0466,81,0.623,76.8
LRATD1 (LRAT domain containing 1),3,1.19,106,0.696,98.2
DPPA5 (developmental pluripotency associated 5),1,1.48,111,1.33,87.5
